Values quoted from earlier work in patent US20110014255A1, “PHYTOSANITARY FORMULATION GENERATING NANOPARTICLES, METHOD FOR PREPARING NANOPARTICLES AND USE THEREOF” (priority 2006, published 2011).
“Also recorded” adds a separate entry of the source. For at least one compound, name, drawing or mass did not settle the structure.

SMILES | miscibility in water (in words)
C[S+](C)[O-] [DMSO] | complete water miscibility
CN1CCCC1=O [NMP] | complete water miscibility; also recorded: total miscibility in water
